The other results are listed elsewhere or left out.
The targets below were run with C[C@@H](Oc1cc(-c2cnn(C3CCNCC3)c2)cnc1N)c1c(Cl)ccc(F)c1Cl [crizotinib] (assay: log2 fold change, soluble protein after heating vs DMSO (PISA); higher = thermal stabilisation; K562 cells, 10 uM, 30 min; active = over 0.2 and 3.5 SD of the protein, either way, in both replicates (recomputed)).
Method in brief: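 Thermal stability values are relative to control samples and come from duplicates. They are expressed as log2 fold changes. For measurement, K562 cells (2×10^6 cells/mL) received 10 μM compound for 30 min, and aliquots were heated for 3 min over 48°C-58°C, pooled, and extracted at 4°C in PBS with 0.5% NP-40. Soluble protein, the supernatant after 21,000xg for 90 min, was quantified by TMTpro 16plex LC-MS/MS with equalised channel sums.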

Chains of the proteins cited; added tags and fusions are not shown. Lines headed by an entry give the natural chain unless they say otherwise; changes in a name come on top.
UniProt O75935, whole entry, looked up: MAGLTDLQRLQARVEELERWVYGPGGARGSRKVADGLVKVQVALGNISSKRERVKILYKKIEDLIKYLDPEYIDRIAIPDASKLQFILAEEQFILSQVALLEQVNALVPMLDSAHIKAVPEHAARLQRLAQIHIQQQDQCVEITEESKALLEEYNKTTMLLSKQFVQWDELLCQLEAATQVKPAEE
UniProt Q9NXE8: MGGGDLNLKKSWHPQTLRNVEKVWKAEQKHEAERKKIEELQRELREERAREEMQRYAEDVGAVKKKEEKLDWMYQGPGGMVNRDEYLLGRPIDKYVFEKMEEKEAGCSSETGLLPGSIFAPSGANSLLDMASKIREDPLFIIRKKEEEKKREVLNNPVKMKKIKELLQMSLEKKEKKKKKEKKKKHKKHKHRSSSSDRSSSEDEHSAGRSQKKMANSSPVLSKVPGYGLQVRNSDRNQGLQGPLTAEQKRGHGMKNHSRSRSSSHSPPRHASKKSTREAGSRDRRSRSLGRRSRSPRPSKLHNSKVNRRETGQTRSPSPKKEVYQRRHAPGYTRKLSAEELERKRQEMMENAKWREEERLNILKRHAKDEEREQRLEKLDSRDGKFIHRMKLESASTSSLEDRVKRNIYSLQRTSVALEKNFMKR
UniProt P53634: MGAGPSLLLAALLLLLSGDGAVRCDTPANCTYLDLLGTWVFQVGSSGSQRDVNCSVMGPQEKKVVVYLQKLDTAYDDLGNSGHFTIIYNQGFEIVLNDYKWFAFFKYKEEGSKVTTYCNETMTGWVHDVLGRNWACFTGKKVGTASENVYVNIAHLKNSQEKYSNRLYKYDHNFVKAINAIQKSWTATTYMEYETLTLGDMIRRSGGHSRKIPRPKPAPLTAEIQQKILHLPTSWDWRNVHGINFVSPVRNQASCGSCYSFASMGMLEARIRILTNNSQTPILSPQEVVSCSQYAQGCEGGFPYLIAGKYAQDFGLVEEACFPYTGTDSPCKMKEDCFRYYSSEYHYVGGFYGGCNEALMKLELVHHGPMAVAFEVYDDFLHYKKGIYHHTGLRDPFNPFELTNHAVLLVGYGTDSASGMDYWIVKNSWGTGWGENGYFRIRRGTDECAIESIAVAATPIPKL
UniProt P14868: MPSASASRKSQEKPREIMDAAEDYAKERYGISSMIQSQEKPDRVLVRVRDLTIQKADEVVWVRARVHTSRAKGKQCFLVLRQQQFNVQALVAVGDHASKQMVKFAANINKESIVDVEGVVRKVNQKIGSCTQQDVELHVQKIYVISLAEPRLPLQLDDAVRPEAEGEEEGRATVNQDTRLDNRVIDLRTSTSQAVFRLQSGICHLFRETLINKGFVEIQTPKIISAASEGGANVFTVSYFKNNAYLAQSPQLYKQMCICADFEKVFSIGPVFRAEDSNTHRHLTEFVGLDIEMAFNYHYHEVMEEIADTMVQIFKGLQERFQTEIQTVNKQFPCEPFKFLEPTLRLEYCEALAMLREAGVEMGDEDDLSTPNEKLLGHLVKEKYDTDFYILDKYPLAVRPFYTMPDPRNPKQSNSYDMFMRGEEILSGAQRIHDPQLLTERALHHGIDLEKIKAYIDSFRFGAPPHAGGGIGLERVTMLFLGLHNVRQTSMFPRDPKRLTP
UniProt O60716: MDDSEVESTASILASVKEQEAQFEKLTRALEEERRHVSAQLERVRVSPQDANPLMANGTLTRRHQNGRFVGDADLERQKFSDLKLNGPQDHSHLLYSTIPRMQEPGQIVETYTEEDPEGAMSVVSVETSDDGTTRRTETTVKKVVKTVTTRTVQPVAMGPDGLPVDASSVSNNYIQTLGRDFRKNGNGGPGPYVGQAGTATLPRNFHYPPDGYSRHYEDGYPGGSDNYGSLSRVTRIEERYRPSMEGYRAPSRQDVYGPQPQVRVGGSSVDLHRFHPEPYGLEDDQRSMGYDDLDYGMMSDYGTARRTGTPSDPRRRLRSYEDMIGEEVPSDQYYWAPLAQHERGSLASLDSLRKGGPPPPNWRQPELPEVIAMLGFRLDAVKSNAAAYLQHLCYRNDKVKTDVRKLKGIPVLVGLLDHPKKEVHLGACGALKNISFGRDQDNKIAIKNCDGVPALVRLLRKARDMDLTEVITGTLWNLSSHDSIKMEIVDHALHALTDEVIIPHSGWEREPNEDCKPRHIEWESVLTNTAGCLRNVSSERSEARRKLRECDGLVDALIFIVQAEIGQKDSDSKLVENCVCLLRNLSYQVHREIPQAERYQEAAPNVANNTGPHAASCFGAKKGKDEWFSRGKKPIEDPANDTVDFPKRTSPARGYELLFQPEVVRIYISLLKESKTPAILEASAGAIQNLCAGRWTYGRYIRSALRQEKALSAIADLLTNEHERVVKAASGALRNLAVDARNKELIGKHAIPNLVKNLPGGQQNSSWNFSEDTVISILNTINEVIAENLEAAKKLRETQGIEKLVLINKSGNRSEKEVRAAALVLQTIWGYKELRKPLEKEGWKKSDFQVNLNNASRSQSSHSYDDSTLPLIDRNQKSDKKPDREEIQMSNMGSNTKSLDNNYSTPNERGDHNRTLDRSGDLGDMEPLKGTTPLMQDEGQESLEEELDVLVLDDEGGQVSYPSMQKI
UniProt Q9Y4B6: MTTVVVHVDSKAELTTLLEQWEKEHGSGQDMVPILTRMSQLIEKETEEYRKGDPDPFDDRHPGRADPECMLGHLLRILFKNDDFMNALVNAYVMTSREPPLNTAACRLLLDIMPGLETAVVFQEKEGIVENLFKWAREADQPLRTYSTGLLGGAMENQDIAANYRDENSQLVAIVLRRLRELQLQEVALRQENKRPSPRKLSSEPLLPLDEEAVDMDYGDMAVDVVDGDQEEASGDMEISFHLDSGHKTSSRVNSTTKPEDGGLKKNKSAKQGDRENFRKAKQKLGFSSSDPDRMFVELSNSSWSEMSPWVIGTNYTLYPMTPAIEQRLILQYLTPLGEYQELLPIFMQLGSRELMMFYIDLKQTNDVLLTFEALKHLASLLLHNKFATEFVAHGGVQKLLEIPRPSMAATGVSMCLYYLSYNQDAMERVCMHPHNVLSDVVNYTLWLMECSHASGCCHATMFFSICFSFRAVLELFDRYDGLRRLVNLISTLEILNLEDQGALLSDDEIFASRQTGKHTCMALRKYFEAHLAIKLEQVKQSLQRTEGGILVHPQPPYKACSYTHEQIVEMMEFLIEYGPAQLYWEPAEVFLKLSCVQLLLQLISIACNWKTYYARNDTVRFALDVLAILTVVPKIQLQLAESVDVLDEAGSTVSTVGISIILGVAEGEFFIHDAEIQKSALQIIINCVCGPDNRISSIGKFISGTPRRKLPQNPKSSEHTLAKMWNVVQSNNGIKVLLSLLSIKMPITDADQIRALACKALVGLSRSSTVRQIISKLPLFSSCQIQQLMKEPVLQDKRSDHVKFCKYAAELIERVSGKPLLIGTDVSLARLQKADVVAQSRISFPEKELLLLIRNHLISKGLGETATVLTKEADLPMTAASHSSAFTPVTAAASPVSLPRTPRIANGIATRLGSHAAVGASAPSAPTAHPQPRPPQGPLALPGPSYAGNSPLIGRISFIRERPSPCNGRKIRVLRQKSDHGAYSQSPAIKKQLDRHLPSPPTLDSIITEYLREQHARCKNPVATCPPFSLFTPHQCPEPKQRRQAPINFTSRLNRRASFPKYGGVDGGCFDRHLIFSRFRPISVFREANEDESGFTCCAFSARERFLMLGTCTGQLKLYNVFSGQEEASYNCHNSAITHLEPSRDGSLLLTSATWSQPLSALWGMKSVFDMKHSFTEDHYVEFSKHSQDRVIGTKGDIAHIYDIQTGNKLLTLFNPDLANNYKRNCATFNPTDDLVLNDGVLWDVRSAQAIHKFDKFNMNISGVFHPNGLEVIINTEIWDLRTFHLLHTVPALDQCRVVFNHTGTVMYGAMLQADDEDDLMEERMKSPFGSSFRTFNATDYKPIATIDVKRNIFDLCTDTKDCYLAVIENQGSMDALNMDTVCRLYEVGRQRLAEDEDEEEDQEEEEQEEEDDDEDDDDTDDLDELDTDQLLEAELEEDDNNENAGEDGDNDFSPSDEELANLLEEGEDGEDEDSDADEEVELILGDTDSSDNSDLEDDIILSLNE
UniProt P01034: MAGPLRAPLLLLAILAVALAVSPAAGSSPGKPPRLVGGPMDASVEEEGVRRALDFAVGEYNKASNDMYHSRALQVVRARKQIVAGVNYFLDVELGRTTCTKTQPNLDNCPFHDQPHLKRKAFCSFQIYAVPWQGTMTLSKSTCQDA
UniProt Q9Y5B0: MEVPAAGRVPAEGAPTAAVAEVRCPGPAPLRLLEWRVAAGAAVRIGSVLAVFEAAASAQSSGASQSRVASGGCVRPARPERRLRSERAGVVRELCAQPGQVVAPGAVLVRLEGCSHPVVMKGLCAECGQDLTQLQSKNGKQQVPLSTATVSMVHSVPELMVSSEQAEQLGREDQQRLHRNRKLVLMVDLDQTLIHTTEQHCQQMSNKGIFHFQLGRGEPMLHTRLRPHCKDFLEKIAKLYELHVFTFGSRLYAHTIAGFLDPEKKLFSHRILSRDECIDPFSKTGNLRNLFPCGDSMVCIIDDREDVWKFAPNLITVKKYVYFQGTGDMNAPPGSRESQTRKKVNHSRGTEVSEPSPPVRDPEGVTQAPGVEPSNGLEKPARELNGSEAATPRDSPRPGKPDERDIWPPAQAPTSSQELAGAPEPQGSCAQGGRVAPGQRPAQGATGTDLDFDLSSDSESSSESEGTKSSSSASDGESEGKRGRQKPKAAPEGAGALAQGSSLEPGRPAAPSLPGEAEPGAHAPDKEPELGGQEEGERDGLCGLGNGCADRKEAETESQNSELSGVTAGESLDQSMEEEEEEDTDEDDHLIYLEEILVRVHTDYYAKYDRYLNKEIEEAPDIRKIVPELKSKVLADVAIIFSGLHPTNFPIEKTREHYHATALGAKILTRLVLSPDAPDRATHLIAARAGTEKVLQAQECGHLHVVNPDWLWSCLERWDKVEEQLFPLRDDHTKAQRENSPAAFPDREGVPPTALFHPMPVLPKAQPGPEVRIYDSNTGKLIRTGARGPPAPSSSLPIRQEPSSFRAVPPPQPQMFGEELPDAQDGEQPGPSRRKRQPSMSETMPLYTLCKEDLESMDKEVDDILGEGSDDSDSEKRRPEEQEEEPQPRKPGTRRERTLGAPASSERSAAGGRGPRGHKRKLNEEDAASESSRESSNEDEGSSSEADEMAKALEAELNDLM
UniProt Q7Z7A3: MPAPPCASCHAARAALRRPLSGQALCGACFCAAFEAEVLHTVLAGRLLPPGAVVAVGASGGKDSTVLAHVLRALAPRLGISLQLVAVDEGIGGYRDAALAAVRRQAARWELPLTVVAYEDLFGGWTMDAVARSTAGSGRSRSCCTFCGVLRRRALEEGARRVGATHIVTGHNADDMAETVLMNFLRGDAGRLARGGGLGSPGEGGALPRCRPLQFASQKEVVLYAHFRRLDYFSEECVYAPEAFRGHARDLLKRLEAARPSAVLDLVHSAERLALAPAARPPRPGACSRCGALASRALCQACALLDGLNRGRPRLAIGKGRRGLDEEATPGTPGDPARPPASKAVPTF
UniProt P61803: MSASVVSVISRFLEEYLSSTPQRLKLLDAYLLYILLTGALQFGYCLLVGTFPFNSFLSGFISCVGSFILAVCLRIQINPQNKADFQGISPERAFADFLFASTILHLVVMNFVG
UniProt P04080: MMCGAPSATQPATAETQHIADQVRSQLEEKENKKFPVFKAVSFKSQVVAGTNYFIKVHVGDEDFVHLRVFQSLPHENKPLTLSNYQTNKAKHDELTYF
UniProt Q16643: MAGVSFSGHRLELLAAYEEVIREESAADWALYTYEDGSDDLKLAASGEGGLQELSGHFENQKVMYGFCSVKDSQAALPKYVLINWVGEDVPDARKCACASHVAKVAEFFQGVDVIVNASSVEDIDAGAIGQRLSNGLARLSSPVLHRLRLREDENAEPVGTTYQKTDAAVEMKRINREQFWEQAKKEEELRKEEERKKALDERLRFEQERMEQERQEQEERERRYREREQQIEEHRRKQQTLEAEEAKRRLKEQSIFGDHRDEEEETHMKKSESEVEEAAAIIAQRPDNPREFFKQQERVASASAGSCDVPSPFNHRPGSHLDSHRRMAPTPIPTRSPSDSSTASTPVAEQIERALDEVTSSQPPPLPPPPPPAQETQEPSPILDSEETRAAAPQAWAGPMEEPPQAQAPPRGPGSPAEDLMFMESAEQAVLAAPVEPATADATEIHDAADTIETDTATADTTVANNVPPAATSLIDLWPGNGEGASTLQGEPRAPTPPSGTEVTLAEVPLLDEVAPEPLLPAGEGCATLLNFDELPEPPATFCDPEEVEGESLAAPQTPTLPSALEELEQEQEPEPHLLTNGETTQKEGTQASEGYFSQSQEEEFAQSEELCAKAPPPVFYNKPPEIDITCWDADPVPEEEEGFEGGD

log2 fold change, inactive:
CUEDC2 (UniProt Q9H467) -0.029
DCTN3 (UniProt O75935) 0.08
CWC25 (UniProt Q9NXE8) -0.057
D2HGDH (UniProt Q8N465) 0.07
CTSC (UniProt P53634) -0.037
CTCF (UniProt P49711) 0.101
CYP20A1 (UniProt Q6UW02) -0.041
CTH (UniProt P32929) 0.029
CTNNA2 (UniProt P26232) -0.03
CTBP2 isoform 2 (UniProt P56545) 0.053
CSRP1 (UniProt P21291) 0.02
CSTF1 (UniProt Q05048) 0.087
DARS (UniProt P14868) 0
CXorf56 (UniProt Q9H5V9) 0.051
CYFIP2 (UniProt Q96F07) -0.065
DCAF15 (UniProt Q66K64) 0
CTNND1 (UniProt O60716) -0.078
DCAF1 (UniProt Q9Y4B6) -0.032
DCUN1D4 isoform 3 (UniProt Q92564) -0.033
CYBC1 (UniProt Q9BQA9) 0.076
CTNNA1 isoform 2 (UniProt P35221) -0.045
DBT (UniProt P11182) -0.01
CUL5 (UniProt Q93034) 0.054
DCTD isoform 2 (UniProt P32321) 0.054
CTPS1 (UniProt P17812) 0.027
CYB5R2 (UniProt Q6BCY4) 0.055
CYB5B, A0A499FJ32 0.086
CST3 (UniProt P01034) 0.206
DCK (UniProt P27707) 0.117
CTDP1 (UniProt Q9Y5B0) -0.096
CTU1 (UniProt Q7Z7A3) -0.132
DAD1 (UniProt P61803) -0.077
CTBP1 (UniProt Q13363) 0.067
DCPS (UniProt Q96C86) 0.058
CSTB (UniProt P04080) 0.102
DBN1 isoform 3 (UniProt Q16643) 0.088
DCAKD (UniProt Q8WVC6) -0.063
DBR1 (UniProt Q9UK59) -0.022
CT45A10 (UniProt P0DMU9) 0.038
DAP3 (UniProt P51398) 0.104

Quoted at random: two entries already listed, in no set order.
log2 fold change, inactive:
DCK (UniProt P27707) 0.117
CTNNA1 isoform 2 (UniProt P35221) -0.045

From the supplement of paper PMC10849652
